# From the supplement of paper PMC3334620
# The full ranking holds about 33,000 sequences; the median of “E-score (-0.5 to 0.5)” is about -0.0014, and the highest 2% start at about 0.25. Some of the results follow.
# Target: T1, Cad1 (UniProt P24813)
# T1 sequence: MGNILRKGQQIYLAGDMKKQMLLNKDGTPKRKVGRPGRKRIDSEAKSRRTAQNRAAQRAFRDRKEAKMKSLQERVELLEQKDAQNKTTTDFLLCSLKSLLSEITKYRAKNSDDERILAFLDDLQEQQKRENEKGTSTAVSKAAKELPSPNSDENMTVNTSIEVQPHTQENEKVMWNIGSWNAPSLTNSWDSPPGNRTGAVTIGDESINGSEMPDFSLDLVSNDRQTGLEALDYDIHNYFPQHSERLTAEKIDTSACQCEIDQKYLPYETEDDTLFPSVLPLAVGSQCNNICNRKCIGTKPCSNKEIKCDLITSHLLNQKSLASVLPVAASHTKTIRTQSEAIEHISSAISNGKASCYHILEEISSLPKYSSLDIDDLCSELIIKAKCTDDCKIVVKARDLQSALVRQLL
# Test: PBM E-score (8-mer binding enrichment) (E-score (-0.5 to 0.5)); higher = stronger / more preferred TF binding
# Settings: protein concentration: 100 nM; construct: GST-full length
# Summary of the method: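 Bound GST-tagged yeast transcription factors, applied at about 100-200 nM to double-stranded universal all-10-mer Agilent arrays, were detected with fluorescent anti-GST. Scans were normalised with masliner. A modified Wilcoxon-Mann-Whitney statistic, the E-score, was assigned to each ungapped eight-base word pooled with its reverse complement by the Universal PBM Analysis Suite.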
row,Sequence,PBM E-score
1,AAATCCCC,-0.23
2,ACGTCTAC,-0.0552
3,CCAGAGCG,-0.0616
4,AACTTGGC,0.117
5,CTAACTAA,0.206
6,AGCCTGAA,-0.0823
7,ATGCTCGC,0.0221
8,ATTCTGAG,0.00037
9,TATTGTCA,0.203
10,ATTTCACA,0.139
11,ACATGCCT,-0.104
12,CATCTTCG,0.184
13,GTCACTGA,-0.0728
14,CTTACAAA,0.372
15,ACCGCCGA,-0.0944
16,GTCAATTA,0.0509
17,ACGGTGCG,0.2
18,ACACGAAA,0.257
19,TAGTTATA,0.068
20,GACAATGC,0.166
21,GAGATCCA,-0.139
22,CGCGATCC,0.146

row,Sequence,PBM E-score
1,AATTCCGA,0.229
2,AGATCTGG,-0.0847
3,GGCAACAA,0.0372
4,AGAGATTC,0.216
5,AGCAGCGC,0.00251
6,GGTGAGTA,-0.121
7,CGCGCCAC,0.00045
8,AGACCCAA,-0.0921
9,CCAGCGTC,-0.178
10,CACTCATC,-0.00019
11,AGTAGCAA,0.164
12,CAAAACCC,0.101
13,AGACCACG,-0.185
14,GTGGAAAA,-0.033
15,GTGCGAAA,0.0402
16,AGGACTTC,-0.103
17,AAACAAGA,-0.0107
18,GAGGAAGC,-0.0056
19,ATGACAGC,0.231
20,GATGGAGA,-0.0421
21,CTCAGCTC,-0.0961
22,CCTCCCTA,-0.222

row,Sequence,PBM E-score
1,AATACTAG,0.165
2,CGACCAAC,0.0088
3,AAGATCTC,-0.0214
4,GGGAACAC,0.0161
5,CTCTACCC,0.0485
6,ACGGGGCC,-0.108
7,CTTTAAGC,0.0294
8,CTCGATCC,0.0631
9,ACCCATGC,-0.0389
10,TCATCAGA,0.0421
11,AGACACCG,-0.0528
12,TATTTCGA,0.226
13,AACCAACG,0.0211
14,GGTGGTAC,-0.175
15,GGCTGCCA,-0.14
16,CCCCGTAC,-0.224
17,AACGGAGC,-0.187
18,CACACGTC,-0.0941
19,AAGTCACT,-0.101
20,ACTCCCGG,-0.0908
21,CAGATGTC,-0.18
22,ACCACCGG,-0.176

# Reformatted: results already given
row | Sequence | PBM E-score
12 | CATCTTCG | 0.184
2 | AGATCTGG | -0.0847
15 | GTGCGAAA | 0.0402
5 | CTCTACCC | 0.0485
8 | CTCGATCC | 0.0631
19 | AAGTCACT | -0.101

# Next entries:

row,Sequence,PBM E-score
1,CAGCAAGC,-0.242
2,ACTCACTC,0.0557
3,CACCACTC,0.0728
4,GTCACGCA,-0.00543
5,CCATACAG,-0.0244
6,ACCCCTGG,-0.271
7,ACTATAGA,-0.00757
8,AGCGGCAA,0.0335
9,GAGCCCCA,-0.336
10,AATTGAAC,-0.0424
11,CGAGCTTC,0.258
12,AGCGCGCA,0.355
13,AATCCCTC,0.165
14,AGTTCAAG,0.152
15,GCCTATGA,-0.145
16,ACCATCTA,-0.212
17,AAGTTGAA,-0.153
18,CATTTGCA,0.171
19,CCATACTC,-0.0714
20,AGAACCTA,-0.045
